Data as given in PubChem BioAssay AID1224826 (NIAID, 2016).

Screen: 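Genes that change LPS-induced Tnf promoter activity in mouse macrophages when knocked down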 (primary screen)
System: RAW264.7 G9 macrophages from mouse bearing reporters for p65 (GFP) and the Tnf promoter (mCherry)
Knock-down reagent: siRNA pool against mouse genes, 100 nM
Timing: 16 h of LPS stimulation, after 2 days of siRNA transfection
Conditions: bacterial lipopolysaccharide (Salmonella minnesota R595), 10 ng/ml
Read-out: 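Nuclear mCherry signal of the Tnf promoter reporter measured by imaging after background removal, scaled to each plate median and turned into robust z-scores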
Direction: Tnf reporter robust z-score: higher = stronger Tnf promoter reporter signal after LPS; Tnf reporter intensity: higher = stronger Tnf promoter reporter signal
Hit rule: 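Called active when robust z-score is at most -1.3, matching the median of the Tlr4 knock-down control, or over 3; control wells and wells with under 50 cells never active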
Calls: active = Tnf reporter clearly lowered or raised; inactive = no clear change in Tnf reporter
The whole screen tested about 17,000 reagents; shown is a random part of them. About 1,110 of them (6.6%) count as active. 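Active means lowered or raised reporter signal; replicate intensities are raw and not normalised per plate.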 The numbers tell different reagents against one gene apart.

gene	pool no.	Tnf reporter robust z-score	fewer than 50 cells in well	Tnf reporter intensity, replicate 1	Tnf reporter intensity, replicate 2	Call
Kif3a (kinesin family member 3A)	1	-0.02	enough cells in well	233	153	inactive
Muc1 (mucin 1, transmembrane)	1	-0.45	enough cells in well	191	90.5	inactive
H3f3a (H3.3 histone A)	1	-0.36	enough cells in well	297	89	inactive
Emilin1 (elastin microfibril interfacer 1)	1	0.16	enough cells in well	199	103	inactive
Iqcg (IQ motif containing G)	1		fewer than 50 cells per well; well left out of calls	121	94.1	inactive
Pax6 (paired box 6)	1	-1.36	enough cells in well	113	113	active
Manea (mannosidase, endo-alpha)	1	-0.7	enough cells in well	153	50.4	inactive
Myh1 (myosin, heavy polypeptide 1, skeletal muscle, adult)	1	1.21	enough cells in well	363	295	inactive
Cox7a2l (cytochrome c oxidase subunit 7A2 like)	1	-0.07	enough cells in well	181	171	inactive
Matn3 (matrilin 3)	1	-0.47	enough cells in well	223	172	inactive
Cdo1 (cysteine dioxygenase 1, cytosolic)	1	-0.25	enough cells in well	151	161	inactive
Usp29 (ubiquitin specific peptidase 29)	1	1.84	enough cells in well	189	132	inactive
Cutc (cutC copper transporter)	1	-0.91	enough cells in well	120	130	inactive
Or5w20 (olfactory receptor family 5 subfamily W member 20)	1	-0.99	enough cells in well	125	101	inactive
Egfr (epidermal growth factor receptor)	1	-0.49	enough cells in well	182	116	inactive
Pvr (poliovirus receptor)	1	-0.45	enough cells in well	239	146	inactive
Pvr (poliovirus receptor)	2	0.09	enough cells in well	289	231	inactive
A430005L14Rik (RIKEN cDNA A430005L14 gene)	1		fewer than 50 cells per well; well left out of calls	117	109	inactive
Sgms2 (sphingomyelin synthase 2)	1		fewer than 50 cells per well; well left out of calls	195	45.1	inactive
Cacng8 (calcium channel, voltage-dependent, gamma subunit 8)	1	-0.78	enough cells in well	120	131	inactive
Nostrin (nitric oxide synthase trafficker)	1	0	enough cells in well	193	144	inactive
Elob (elongin B)	1	-0.75	enough cells in well	196	86.4	inactive
Tac4 (tachykinin 4)	1	0.28	enough cells in well	128	81.6	inactive
Mybl2 (Myb proto-oncogene like 2)	1	-1.28	enough cells in well	124	139	inactive
Zfp57 (zinc finger protein 57)	1	-1.02	enough cells in well	87.9	75	inactive
P2rx2 (purinergic receptor P2X, ligand-gated ion channel, 2)	1	0.44	enough cells in well	263	220	inactive
Scn5a (sodium channel, voltage-gated, type V, alpha)	1	0.63	enough cells in well	351	251	inactive
Ap1g1 (adaptor protein complex AP-1, gamma 1 subunit)	1	-1.47	enough cells in well	103	95.3	active
Gdf15 (growth differentiation factor 15)	1	0.44	enough cells in well	259	303	inactive
Cblif (cobalamin binding intrinsic factor)	1	0.09	enough cells in well	300	210	inactive
Prdx4 (peroxiredoxin 4)	1	-0.92	enough cells in well	189	116	inactive
Col6a6 (collagen, type VI, alpha 6)	1	-0.09	enough cells in well	166	122	inactive
Edn3 (endothelin 3)	1	-0.88	enough cells in well	185	136	inactive
Dram2 (DNA-damage regulated autophagy modulator 2)	1	0.57	enough cells in well	162	84.7	inactive
Or4a66 (olfactory receptor family 4 subfamily A member 66)	1	-0.66	enough cells in well	156	109	inactive
Scnn1g (sodium channel, nonvoltage-gated 1 gamma)	1	1.06	enough cells in well	382	289	inactive
Gbp8 (guanylate-binding protein 8)	1		fewer than 50 cells per well; well left out of calls	99.5	109	inactive
Medag (mesenteric estrogen dependent adipogenesis)	1	0.29	enough cells in well	173	181	inactive
Ces1d (carboxylesterase 1D)	1	-0.59	enough cells in well	129	231	inactive
Chdh (choline dehydrogenase)	1	-0.87	enough cells in well	122	117	inactive
Dsc3 (desmocollin 3)	1	-0.82	enough cells in well	189	128	inactive
Mier3 (MIER family member 3)	1	1.27	enough cells in well	329	326	inactive
Metrnl (meteorin, glial cell differentiation regulator-like)	1	-0.11	enough cells in well	211	185	inactive
4930486L24Rik (RIKEN cDNA 4930486L24 gene)	1		fewer than 50 cells per well; well left out of calls	128	27.1	inactive
1700010H22Rik (RIKEN cDNA 1700010H22 gene)	1		fewer than 50 cells per well; well left out of calls	185	80.4	inactive
Myog (myogenin)	1		fewer than 50 cells per well; well left out of calls	165	116	inactive
Semp2l2a (SUMO/sentrin specific peptidase 2-like 2A)	1	-1.35	enough cells in well	99.8	115	active
Ina (internexin neuronal intermediate filament protein, alpha)	1	0.72	enough cells in well	210	183	inactive
Gpr68 (G protein-coupled receptor 68)	1	-0.32	enough cells in well	147	341	inactive
A530079E22Rik (RIKEN cDNA A530079E22 gene)	1	2.01	enough cells in well	272	274	inactive
Syap1 (synapse associated protein 1)	1	0.88	enough cells in well	140	132	inactive
Adcy10 (adenylate cyclase 10)	1	-0.58	enough cells in well	287	140	inactive
Kif1c (kinesin family member 1C)	1	-0.62	enough cells in well	181	125	inactive
Dyrk1a	1	-0.91	enough cells in well	146	101	inactive
Cmtm2a (CKLF-like MARVEL transmembrane domain containing 2A)	1	1.97	enough cells in well	250	235	inactive
Selplg (selectin, platelet (p-selectin) ligand)	1	0.05	enough cells in well	249	248	inactive
Tpx2 (TPX2, microtubule-associated)	1		fewer than 50 cells per well; well left out of calls	158	50.5	inactive
Gpt2 (glutamic pyruvate transaminase (alanine aminotransferase) 2)	1	0.96	enough cells in well	333	157	inactive
